According to PMC10620153, “ARF1 prevents aberrant type I interferon induction by regulating STING activation and recycling” (Nature Communications, 2023):
These are yes or no findings as the source states them, for the method shown. Binding seen in cells or lysates may run through a third protein. Some binding calls cover weakened binding; strength is not graded here.

The chains behind the UniProt entries cited, without tags or fusion partners. Where a name states a change or a piece, a line headed by the entry shows the natural chain unless it says otherwise.
UniProt P84077: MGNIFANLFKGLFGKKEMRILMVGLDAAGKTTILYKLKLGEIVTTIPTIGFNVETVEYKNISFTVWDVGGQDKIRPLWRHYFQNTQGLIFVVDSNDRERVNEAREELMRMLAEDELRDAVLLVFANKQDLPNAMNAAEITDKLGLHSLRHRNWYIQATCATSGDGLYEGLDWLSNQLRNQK

Experiments:
[1] = biological target: human ARF1 R99C, myc-FLAG tagged (pCMV6-hARF1-R99C-myc-FLAG) (human) (UniProt P84077); assay: co-IP; dimerization assay: HEK293T co-transfected with ARF1-myc-FLAG and ARF1-Tag-RFP (both WT or both R99C); lysates on anti-FLAG M2 magnetic beads 4 h at 4 °C; five washes with transmembrane lysis buffer; immunoblot
[2] = biological target: human ARF1 wild type, myc-FLAG tagged (pCMV6-hARF1-myc-FLAG) (human) (UniProt P84077); assay: as above
[3] = biological target: human ARF1 wild type, myc-FLAG tagged (pCMV6-hARF1-myc-FLAG) (human) (UniProt P84077); assay: co-IP; HEK293T lysates 48 h after transfection with FLAG-ARF1 WT, R99C or vector; anti-FLAG M2 magnetic beads 4 h at 4 °C; five washes with transmembrane lysis buffer (300 mM salt); blot with anti-COPB
[4] = biological target: human ARF1 R99C, myc-FLAG tagged (pCMV6-hARF1-R99C-myc-FLAG) (human) (UniProt P84077); assay: as above

## human ARF1 R99C, myc-FLAG tagged (pCMV6-hARF1-R99C-myc-FLAG) (from UniProt P84077 1-181)
[1]
  binding: binds

## human ARF1 wild type, myc-FLAG tagged (pCMV6-hARF1-myc-FLAG) (from UniProt P84077 1-181)
[2]
  binding: binds

B1: COPB1 (natural protein, human (endogenous in HEK293T), UniProt P53618 1-953, looked up)
chain: MTAAENVCYTLINVPMDSEPPSEISLKNDLEKGDVKSKTEALKKVIIMILNGEKLPGLLMTIIRFVLPLQDHTIKKLLLVFWEIVPKTTPDGRLLHEMILVCDAYRKDLQHPNEFIRGSTLRFLCKLKEAELLEPLMPAIRACLEHRHSYVRRNAVLAIYTIYRNFEHLIPDAPELIHDFLVNEKDASCKRNAFMMLIHADQDRALDYLSTCIDQVQTFGDILQLVIVELIYKVCHANPSERARFIRCIYNLLQSSSPAVKYEAAGTLVTLSSAPTAIKAAAQCYIDLIIKESDNNVKLIVLDRLIELKEHPAHERVLQDLVMDILRVLSTPDLEVRKKTLQLALDLVSSRNVEELVIVLKKEVIKTNNVSEHEDTDKYRQLLVRTLHSCSVRFPDMAANVIPVLMEFLSDNNEAAAADVLEFVREAIQRFDNLRMLIVEKMLEVFHAIKSVKIYRGALWILGEYCSTKEDIQSVMTEIRRSLGEIPIVESEIKKEAGELKPEEEITVGPVQKLVTEMGTYATQSALSSSRPTKKEEDRPPLRGFLLDGDFFVAASLATTLTKIALRYVALVQEKKKQNSFVAEAMLLMATILHLGKSSLPKKPITDDDVDRISLCLKVLSECSPLMNDIFNKECRQSLSHMLSAKLEEEKLSQKKESEKRNVTVQPDDPISFMQLTAKNEMNCKEDQFQLSLLAAMGNTQRKEAADPLASKLNKVTQLTGFSDPVYAEAYVHVNQYDIVLDVLVVNQTSDTLQNCTLELATLGDLKLVEKPSPLTLAPHDFANIKANVKVASTENGIIFGNIVYDVSGAASDRNCVVLSDIHIDIMDYIQPATCTDAEFRQMWAEFEWENKVTVNTNMVDLNDYLQHILKSTNMKCLTPEKALSGYCGFMAANLYARSIFGEDALANVSIEKPIHQGPDAAVTGHIRIRAKSQGMALSLGDKINLSQKKTSI
notes: Coatomer subunit beta (COPB1), component of the COPI complex, endogenous in HEK293T cells; detected in the co-IP with anti-COPB (Abcam Ab2899); The co-IP names the protein only as COPB; also called beta-COP; source: endogenous, HEK293T lysate
[3]
  binding: binds
[4]
  binding: binds
